Here are results for one molecule from publication PMC4996973, “Topology and structure of an engineered human cohesin complex bound to Pds5B” (Nature Communications, 2016).

Results are given in words; binding and its absence hold for the method and conditions named. Where a sequence is shown, tags or fusion partners need not be part of it.

For the experiment, the target named is bonsai dimers (Smc1^B-10HIS, Smc3^B-FLAG) (human). In words: pull-down; comparison of Pds5B binding to FLAG-immobilised bonsai dimers, trimers and tetramers (Supplementary Fig. 5); the Pds5B sample contained a very substoichiometric amount of Wapl; both purified.

B1: Pds5B^10HIS (protein, UniProt Q9NTI5 1-1447)
chain: MAHSKTRTNDGKITYPPGVKEISDKISKEEMVRRLKMVVKTFMDMDQDSEEEKELYLNLALHLASDFFLKHPDKDVRLLVACCLADIFRIYAPEAPYTSPDKLKDIFMFITRQLKGLEDTKSPQFNRYFYLLENIAWVKSYNICFELEDSNEIFTQLYRTLFSVINNGHNQKVHMHMVDLMSSIICEGDTVSQELLDTVLVNLVPAHKNLNKQAYDLAKALLKRTAQAIEPYITNFFNQVLMLGKTSISDLSEHVFDLILELYNIDSHLLLSVLPQLEFKLKSNDNEERLQVVKLLAKMFGAKDSELASQNKPLWQCYLGRFNDIHVPIRLECVKFASHCLMNHPDLAKDLTEYLKVRSHDPEEAIRHDVIVSIVTAAKKDILLVNDHLLNFVRERTLDKRWRVRKEAMMGLAQIYKKYALQSAAGKDAAKQIAWIKDKLLHIYYQNSIDDRLLVERIFAQYMVPHNLETTERMKCLYYLYATLDLNAVKALNEMWKCQNLLRHQVKDLLDLIKQPKTDASVKAIFSKVMVITRNLPDPGKAQDFMKKFTQVLEDDEKIRKQLEVLVSPTCSCKQAEGCVREITKKLGNPKQPTNPFLEMIKFLLERIAPVHIDTESISALIKQVNKSIDGTADDEDEGVPTDQAIRAGLELLKVLSFTHPISFHSAETFESLLACLKMDDEKVAEAALQIFKNTGSKIEEDFPHIRSALLPVLHHKSKKGPPRQAKYAIHCIHAIFSSKETQFAQIFEPLHKSLDPSNLEHLITPLVTIGHIALLAPDQFAAPLKSLVATFIVKDLLMNDRLPGKKTTKLWVPDEEVSPETMVKIQAIKMMVRWLLGMKNNHSKSGTSTLRLLTTILHSDGDLTEQGKISKPDMSRLRLAAGSAIVKLAQEPCYHEIITLEQYQLCALAINDECYQVRQVFAQKLHKGLSRLRLPLEYMAICALCAKDPVKERRAHARQCLVKNINVRREYLKQHAAVSEKLLSLLPEYVVPYTIHLLAHDPDYVKVQDIEQLKDVKECLWFVLEILMAKNENNSHAFIRKMVENIKQTKDAQGPDDAKMNEKLYTVCDVAMNIIMSKSTTYSLESPKDPVLPARFFTQPDKNFSNTKNYLPPEMKSFFTPGKPKTTNVLGAVNKPLSSAGKQSQTKSSRMETVSNASSSSNPSSPGRIKGRLDSSEMDHSENEDYTMSSPLPGKKSDKRDDSDLVRSELEKPRGRKKTPVTEQEEKLGMDDLTKLVQEQKPKGSQRSRKRGHTASESDEQQWPEEKRLKEDILENEDEQNSPPKKGKRGRPPKPLGGGTPKEEPTMKTSKKGSKKKSGPPAPEEEEEEERQSGNTEQKSKSKQHRVSRRAQQRAESPESSAIESTQSTPQKGRGRPSKTPSPSQPKKNVRVGRSKQAATKENDSSEEVDVFQGSSPVDDIPQEETEEEEVSTVNVRRRSAKRERR
With B1, the binding result was “no binding”.
